No constants are given. Whether binding was seen depends on the method and setting. Some binding calls cover weakened binding; strength is not graded here.
How the values were obtained:
[1] = molecular target: extracellular part of recombinant human RAGE fused to human Fc (R&D Systems Cat No 1145-RG) (human) (UniProt Q15109); assay: ELISA, rhRG coated at 2 ug/ml, nanobody 4-1000 nM, detection with anti-Myc 9E10
[2] = molecular target: extracellular part of recombinant human RAGE fused to human Fc (R&D Systems Cat No 1145-RG) (human) (UniProt Q15109); assay: immunoprecipitation: myc/His-tagged nanobody on Talon beads, rhRG pulled out of solution, SDS-PAGE and blot with mouse anti-RAGE (upper part) and mouse anti-myc (lower part)
[3] = molecular target: extracellular part of recombinant human RAGE fused to human Fc (R&D Systems Cat No 1145-RG) (human) (UniProt Q15109); assay: immunoprecipitation of rhRG with nanobody on Talon beads, SDS-PAGE, anti-RAGE detection
[4] = molecular target: extracellular part of recombinant human RAGE fused to human Fc (R&D Systems Cat No 1145-RG) (human) (UniProt Q15109); assay: immunoprecipitation of rhRG with nanobody on Talon beads, SDS-PAGE (legend of FIG. 1)

The chains behind the UniProt entries cited, without tags or fusion partners. Residues count along the entry.
UniProt Q15109, residues 23-342: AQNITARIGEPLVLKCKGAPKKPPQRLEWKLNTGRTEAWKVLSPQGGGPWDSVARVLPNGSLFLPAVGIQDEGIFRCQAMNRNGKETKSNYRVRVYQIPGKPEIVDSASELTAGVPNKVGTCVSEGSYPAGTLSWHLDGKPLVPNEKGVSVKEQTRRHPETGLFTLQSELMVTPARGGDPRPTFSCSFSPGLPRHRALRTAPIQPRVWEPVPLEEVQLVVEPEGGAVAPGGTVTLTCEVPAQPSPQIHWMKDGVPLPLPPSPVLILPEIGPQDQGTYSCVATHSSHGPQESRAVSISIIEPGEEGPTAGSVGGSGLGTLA

Measured: binding

B1: Nanobody 108D11 (VHH)
VHH: EVQLVESGGGLVQAGGSLRLSCAVSGRTFSTDAFGWFRQAPGKEREFVSAMRWNGSSSYYADLVKGRFTISRDNAKNTVYLLMNSLKPEDTAVYYCTAGKRYGYYDYWGQGTQVTVSS
binds: all assays above

B2: Nanobody 108G10 (VHH)
VHH: EVQLVESGGGLVQAGGSLRLSCAASGRIFNNYAMGWFRQAPGKEREFVAGISWSGDSTLYADSVKGRFTTSRDNAKNTVYLQMNSLKPEDTANYYCAEKQGADWAPYDYWGQGTQVTVSS
binds: all assays above

B3: Nanobody 108G12 (VHH)
VHH: EVQLVESGGGLVQAGGSLRLSCVASELTFSLYRMGWFRQAPGKEREFVSAMSTSGAGTYYADSVKGRFTISRDNPKNTVYLQMNSLKPEDTAVYYCVAGVRFGVYDYWGQGTQVTVSS
binds: all assays above

B4: Nanobody 108E3 (VHH)
VHH: EVQLVESGGGLVQAGGSLRLSCAASGRTVSDMTMGWFRQAPGKERVFVAAISNSGLSTYYQDSVKGRFTISRDTANNTVALQMNSLKPEDTAVYFCAARSGWSGQYDYWGQGTQVTVSS
binds: [1] | [3] | [4]

B5: Nanobody 108D3 (VHH)
VHH: EVQLVESGGGLVQAGGSLRLSCAASGRTFSNYSMGWFRQAPGKEREFVATISWSGALTHYTDSVKGRFTISRDNAKNTVYLQMNSLKPEDTAVYYCAASDSDYGNKYDYWGQGTQVTVSS
binds: [1] | [3] | [4]

— patent publication US20110293603A1
